Measurements taken from US20200000871A1, “B-1A LYMPHOCYTE AND/OR MACROPHAGE TARGETING AND ACTIVATION TO TREAT MEDICAL CONDITIONS WITH INFLAMMATORY OR AUTOIMMUNE COMPONENTS” (THE BOARD OF TRUSTEES OF THE LELAND STANFORD JUNIOR …, priority 2015, published 2020).
“Also recorded” adds a separate entry of the source. Part of at least one peptide drawing is inferred or uncertain, most often the ends. Where no end group is shown, it is not given here.

How the values were obtained:
Assay type in all cases: in vivo
[1] = test system: IL-10 deficient mice with EAE; test: EAE in IL-10 deficient mice; conditions: 10 μg daily
[2] = test system: wild type C57Bl/6 mice with EAE; test: EAE in wild type mice, clinical signs
[3] = test system: μMT mice with EAE; test: EAE in B cell-deficient μMT mice, with or without adoptive transfer of B-1a lymphocytes; conditions: 10 μg daily i.p., no cell transfer
Protocol: Induction of active EAE in mice by immunization with MOG and adjuvant. EAE was induced in female wild type C57Bl/6 mice or μMT and IL-10 deficient mice on C57B/6 background (Jackson Laboratories) by procedures previously described. Briefly, EAE was induced at 9 weeks of age by subcutaneous immunization in the flank with an emulsion containing 200 μg myelin oligodendrocyte glycoprotein35-55 (MOG35-55; […] (SEQ ID NO: 1065)) in saline and an equal volume of complete Freund's adjuvant containing […] mycobacterium tuberculosis H37RA (Disco Laboratories). All mice were given 400 ng of pertussis toxin (List Biological) intraperitoneal (i.p.) at 0 and 48 h post-immunization. The signs of neurological impairment were scored as follows: 0, no clinical disease; 1, tail weakness; 2, hindlimb weakness; 3, complete hindlimb paralysis; 4, hindlimb paralysis and some forelimb weakness; 5, moribund or dead. […] For intranasal inoculation, 10 μg of Amylin 28-33 in 10 μl PBS was gradually released into the nostrils of anesthetized mice. All animal protocols were approved by institutional IACUC.
B-1a lymphocytes were purified by cell sorting of peritoneal cells from wild type C57Bl/6 mice. […] Mice were examined daily for clinical signs of EAE and were scored on a five point scale described above.

Question: With SSTNVG [Amylin 28-33, SSTNVG] as the substance, how does the “therapeutic effect on EAE in IL-10 knockout mice” value [1] read?
Answer: ineffective

Question: What about the “clinical (paralytic) signs of EAE, intranasal delivery” value ([2]; 10 μg daily intranasally at onset of symptoms) of the same substance?
Answer: reduced in a fashion equivalent to that seen when the amyloidogenic peptide is injected i.p; also recorded: reduces the clinical signs of EAE

Question: And the “therapeutic effect in EAE” value ([2]; injected into the peritoneum)?
Answer: therapeutic

Question: And the “therapeutic effect on paralytic signs of EAE in μMT mice” value [3]?
Answer: neither Tau 623-628, nor Amylin 28-33 was therapeutic
